Data source: PubChem BioAssay AID504774 (Drosophila RNAi Screening Center, 2011)
Screen: 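Fly genes whose loss alters survival after alkylation damage to DNA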 (primary screen). Cells: Drosophila Kc167 cells. Knock-down reagent: long dsRNA against Drosophila genes, about 0.25 µg dsRNA per well. Time to read-out: about 6 days: 3 days knock-down, then 3 days with or without MMS. Challenge: methyl methanesulphonate 0.004% (w/v) for 3 days after knock-down. Measured: 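Viability in wells given MMS, read as ATP luminescence, normalised by quantiles plate by plate and averaged across replicates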. Scale: mean viability with MMS: higher = more surviving cells after MMS.
The deposit covers about 23,000 reagents; below is an unselected part of those that have a named target and a result. 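Values are quantile-normalised luminescence on an arbitrary scale; higher means more cells surviving MMS.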 Reagents against one gene are numbered here. Names joined by + are all predicted targets of the reagent. Further read-outs or replicates are left out here.

gene	dsRNA no.	mean viability with MMS
CG33172	1	3.53e6
futsch	1	3.57e6
futsch	2	3.53e6
futsch	3	3.64e6
futsch	4	3.45e6
CG9411	1	3.63e6
Cpr47Ea (Cuticular protein 47Ea)	1	3.54e6
beat-VII (beaten path VII)	1	3.40e6
beat-VII (beaten path VII)	2	3.60e6
beat-VII (beaten path VII)	3	3.81e6
beat-VII (beaten path VII)	4	3.42e6
cad (caudal)	1	2.55e6
cad (caudal)	2	3.58e6
CG5292	1	3.57e6
goe (gone early)	1	3.59e6
CG6067	1	3.49e6
CG31523	1	3.46e6
CG31523	2	3.47e6
CG7881	1	3.56e6
CG17648	1	3.37e6
hbs (hibris)	1	3.66e6
Cf2 (Chorion factor 2)	1	2.82e6
Cf2 (Chorion factor 2)	2	3.66e6
hale (hale-bopp)	1	3.49e6
sing (singles bar)	1	3.55e6
GXIVsPLA2	1	3.60e6
MED25 (Mediator complex subunit 25)	1	2.77e6
MED25 (Mediator complex subunit 25)	2	3.58e6
Lfg (Lifeguard)	1	3.51e6
Aldh (Aldehyde dehydrogenase)	1	3.49e6
Arl6IP1 (ADP-ribosylation factor-like 6 interacting protein 1)	1	3.69e6
CG14830	1	3.40e6
CG14830	2	3.52e6
RpL28 + snoRNA:Or-CD12	1	3.27e6
CG18278 + CG30059	1	3.67e6
CG15646	1	3.55e6
mxt (mextli)	1	3.38e6
Polr2C (RNA polymerase II subunit C)	1	3.01e6
sim (single-minded)	1	3.66e6
ImpL1 (Ecdysone-inducible gene L1)	1	3.38e6
CG17264	1	3.36e6
Pkcdelta (Protein kinase C delta)	1	3.54e6
Pkcdelta (Protein kinase C delta)	2	3.51e6
HHEX (Hematopoietically expressed homeobox)	1	3.14e6
mRpL12 (mitochondrial ribosomal protein L12)	1	3.61e6

9 of these entries, reformatted:
| gene | dsRNA no. | mean viability with MMS |
| --- | --- | --- |
| MED25 (Mediator complex subunit 25) | 2 | 3.58e6 |
| Lfg (Lifeguard) | 1 | 3.51e6 |
| Aldh (Aldehyde dehydrogenase) | 1 | 3.49e6 |
| Arl6IP1 (ADP-ribosylation factor-like 6 interacting protein 1) | 1 | 3.69e6 |
| CG14830 | 1 | 3.40e6 |
| CG14830 | 2 | 3.52e6 |
| RpL28 + snoRNA:Or-CD12 | 1 | 3.27e6 |
| CG18278 + CG30059 | 1 | 3.67e6 |
| CG15646 | 1 | 3.55e6 |

More results:
gene	dsRNA no.	mean viability with MMS
GluRIIB (Glutamate receptor IIB)	1	3.53e6
osi (orsai)	1	3.60e6
CG7872	1	3.60e6
CG31446	1	3.34e6
ths (thisbe)	1	2.63e6
ths (thisbe)	2	3.43e6
CG13101	1	3.67e6
tbrd-2	1	3.45e6
CG32829	1	3.33e6
CG32829	2	3.22e6
CG3515	1	3.45e6
su(r) (suppressor of rudimentary)	1	3.52e6
Abp1 (Actin binding protein 1)	1	3.45e6
Ddx56 (DEAD-box helicase 56)	1	3.55e6
CG14505	1	3.50e6
fwd (four wheel drive)	1	3.52e6
by (blistery)	1	3.53e6
CG8833	1	3.41e6
CG12723	1	3.64e6
l(3)72Dp (lethal (3) 72Dp)	1	3.55e6
lncRNA:CR41601 (long non-coding RNA:CR41601)	1	3.52e6
CG15312	1	3.40e6
Syngr (Synaptogyrin)	1	3.71e6
